Reference: PubChem BioAssay AID504444 (National Center for Advancing Translational Sciences (NCATS), 2011)
The whole screen tested about 360,000 compounds, of which about 7,500 (2.1%) were called active. Inconclusive results, whose numbers are uncertain, are shown with a selection of clear calls. Calls come from the whole dose curve; as a rule, active = well fitted inhibition curve with a large enough effect; inconclusive = small, poorly fitted or top-dose-only effect, or effect the other way; inactive = flat fitted curve, though single readings scatter. A potency beside an inconclusive call is a rough fit, not a confirmed value.

Experiment: Nrf2 qHTS screen for inhibitors; note: nearly all actives have a fitted effect of over 60% in size
Conditions: A549 ARE-Fluc reporter, luciferase luminescence, 18-24 h; activity change, negative = inhibition: at 46 µM (top of the series)
Outline: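 Cells were seeded and rested 2 h, then exposed to compounds for 18-24 h. CellTiter-Fluor was read first as a viability measure. BugLite was added 15 min before the final luminescent read of ARE-luciferase activity in A549 cells.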
% is set by controls: 0 for no effect and ±100 for the full control effect; potency is the fitted concentration of half-maximal effect.

**Q.** With `CCN(CC)S(=O)(=O)c1ccc(NS(=O)(=O)c2ccc(OC)c([N+](=O)[O-])c2)cc1` as the compound, how does the Potency read?
**A.** Its Potency is inconclusive: 32.6 µM [falling, single point].

**Q.** Which Potency does the source give for `CC(C)COc1ccc(C/C(N)=N/n2cnnc2)cc1` here?
**A.** The Potency was active: 16.4 µM.

**Q.** For `Cc1ccc2nc(NCCNC(=O)c3ccccc3)c(C#N)cc2c1`, which Potency is on record?
**A.** The Potency was inconclusive: 23.1 µM [falling, partial curve, poor fit].

**Q.** Which “activity change, negative = inhibition” value does the source give for `O=C1C(=O)N(C2CCN(C(=O)c3ccc(Cl)cc3)CC2)CCN1Cc1ccc(F)cc1` here?
**A.** Its value is inactive: 1.48%.

**Q.** For `Cc1cc(Cl)ccc1OCC(=O)NNC(=O)c1cnccn1`, which Potency is on record?
**A.** The Potency was inconclusive: 32.6 µM [falling, single point].

**Q.** With `Cc1sc2ncnc(NS(=O)(=O)c3ccc(Cl)cc3)c2c1C` as the compound, how does the Potency read?
**A.** The Potency was inconclusive: 23.1 µM [falling, single point].

**Q.** With `O=C(CN1/C(=C(/O)c2ccccc2)C(=O)c2ccccc2S1(=O)=O)c1ccccc1` as the compound, how does the Potency read?
**A.** The Potency was inconclusive: 18.4 µM [falling, single point].

**Q.** With `CCCOc1ccc(CN(C(=O)c2cc(=O)c3ccc(C)cc3o2)C2CCS(=O)(=O)C2)cc1` (stereo not given) as the compound, how does the “activity change, negative = inhibition” value read?
**A.** Its value is inactive: -7.44%.

**Q.** For `CC(C)c1ccc(C2OCC(C)([N+](=O)[O-])CO2)cc1` (stereo not given), which Potency is on record?
**A.** The Potency was inconclusive: 29.1 µM [activator, single point].

**Q.** Which Potency does the source give for `COc1cc(C)ccc1OCCSc1nc(-c2cccc(C)c2)nc2cc(=O)[nH]n12` here?
**A.** The Potency was inconclusive: 29.1 µM [activator, single point].

**Q.** For `O=C(/C=C/c1ccc2ccccc2n1)c1cc(Cl)ccc1O`, which Potency is on record?
**A.** Its Potency is inconclusive: 10.3 µM [activator, partial curve].

**Q.** For `COc1ccc(-c2c(C(C)=O)c(C)n(C)c2C)cc1`, which Potency is on record?
**A.** The Potency was inconclusive: 0.0041 µM [activator, full curve, poor fit].

**Q.** With `Cc1nc2sc3c(O)cc(=O)[nH]c3c2c(C)c1C` as the compound, how does the “activity change, negative = inhibition” value read?
**A.** Its value is inactive: -8.37%.

**Q.** Which Potency does the source give for `Cc1ccccc1NC(=S)Nc1cccc2cnccc12` here?
**A.** Its Potency is inconclusive: 25.9 µM [falling, partial curve, poor fit].

**Q.** With `C/C(=N\NC(=O)c1cccc(F)c1)c1ccc(Br)s1` as the compound, how does the Potency read?
**A.** The Potency was inconclusive: 9.2 µM [falling, partial curve].

**Q.** Which “activity change, negative = inhibition” value does the source give for `O=c1[nH]c2ccccc2c2nc3ccccn3c12` here?
**A.** Its value is inactive: -28.5%.

**Q.** With `C=CCNC1=C(Cl)C(=O)N(c2ccccc2Cl)C1=O` as the compound, how does the “activity change, negative = inhibition” value read?
**A.** Its value is inactive: 14.5%.

**Q.** With `O=C(NCCC1=CCCCC1)c1cc(S(=O)(=O)N2CCOCC2)ccc1Cl` as the compound, how does the Potency read?
**A.** Its Potency is inconclusive: 11.6 µM [falling, single point].

**Q.** Which Potency does the source give for `CN(C)C(CNC(=O)c1cc(-c2ccco2)nc2ccccc12)c1ccccc1` (stereo not given) here?
**A.** Its Potency is inconclusive: 29.1 µM [activator, partial curve, poor fit].

**Q.** For `CCCC[C@H]1COCCS(=O)(=O)N1Cc1ccc(Br)cc1`, which “activity change, negative = inhibition” value is on record?
**A.** Its value is inactive: -25.4%.

**Q.** With `COc1ccc(-n2c(SCCNCCO)nc3sc4c(c3c2=O)CCCC4)cc1` as the compound, how does the Potency read?
**A.** Its Potency is inconclusive: 29.1 µM [activator, single point].

**Q.** Which Potency does the source give for `Cc1cc(/C=C2/C(=O)N(C)C(=S)N2C)ccc1N1CCCC1` here?
**A.** Its Potency is inconclusive: 13 µM [activator, partial curve].

**Q.** Which Potency does the source give for `O=C1NC(=Nc2ccccc2)S/C1=C\c1cccn1-c1ccccc1` here?
**A.** The Potency was inconclusive: 23.1 µM [falling, partial curve, poor fit].

**Q.** For `CCn1nnc(NC(=O)c2sc3ccccc3c2Cl)n1`, which Potency is on record?
**A.** Its Potency is inconclusive: 2.91 µM [activator, full curve].

**Q.** With `CCOC(=O)NC(=O)/C(N=Nc1cccc(C(F)(F)F)c1)=C(\C)O` as the compound, how does the “activity change, negative = inhibition” value read?
**A.** The value was inactive: -7.91%.

**Q.** With `O=S(=O)(/N=C(\Sc1ccccc1)c1ccccc1)c1ccc(Cl)cc1` as the compound, how does the “activity change, negative = inhibition” value read?
**A.** Its value is inactive: -7.01%.

**Q.** For `CN1CCN(C(=O)CSc2nc(-c3cccs3)cc(-c3cccs3)c2C#N)CC1`, which Potency is on record?
**A.** Its Potency is inconclusive: 25.9 µM [falling, partial curve, poor fit].

**Q.** With `COc1ccc(CCNC(=O)COc2ccc(S(=O)(=O)NCC(C)C)cc2Cl)cc1OC` as the compound, how does the Potency read?
**A.** Its Potency is active: 20.6 µM.

**Q.** With `Cc1ccc2ncc(C(=O)NCCc3ccc(S(N)(=O)=O)cc3)c(=O)n2c1` as the compound, how does the “activity change, negative = inhibition” value read?
**A.** Its value is inactive: 8.46%.

**Q.** With `COc1ccc(/C=N/Nc2cn[nH]c(=O)c2Cl)cc1` as the compound, how does the Potency read?
**A.** Its Potency is inconclusive: 29.1 µM [activator, single point].

**Q.** With `COc1cccc(C(=O)NCCCNC(=O)c2cccc(OC)c2)c1` as the compound, how does the Potency read?
**A.** The Potency was inconclusive: 1.03 µM [falling, full curve, poor fit].

**Q.** Which Potency does the source give for `Cc1ccc(OCC(=O)Sc2ccc(C)cc2)cc1` here?
**A.** The Potency was inconclusive: 0.326 µM [falling, full curve, poor fit].

**Q.** For `O=C(Nc1ccccc1)c1cnc[nH]1`, which “activity change, negative = inhibition” value is on record?
**A.** The value was inactive: 4.62%.

**Q.** With `CCCCn1c(N)c(N(CCOC)C(=O)CN(C)CC(=O)Nc2ccc(Cl)c(Cl)c2)c(=O)[nH]c1=O` as the compound, how does the “activity change, negative = inhibition” value read?
**A.** The value was inactive: 12.2%.

**Q.** With `COc1cc(OC)cc(C(=O)Nc2ccc3oc(-c4ccccc4C)nc3c2)c1` as the compound, how does the Potency read?
**A.** Its Potency is inconclusive: 18.4 µM [falling, partial curve].

**Q.** Which “activity change, negative = inhibition” value does the source give for `COCc1[nH][nH]c(=O)c1/C=N/N1CCOCC1` here?
**A.** Its value is inactive: 9.75%.

**Q.** Which Potency does the source give for `CCOc1ccc(NCc2nnc(SCC(=O)Nc3cc(C)on3)n2-c2ccc(OC)cc2)cc1` here?
**A.** The Potency was inconclusive: 16.4 µM [falling, partial curve, poor fit].

**Q.** With `CN(CC(=O)Nc1ccc(F)c(F)c1F)C(=O)Cc1ccc2c(c1)OCCO2` as the compound, how does the “activity change, negative = inhibition” value read?
**A.** The value was inactive: 2.39%.

**Q.** Which “activity change, negative = inhibition” value does the source give for `Cc1ccccc1NC(=O)c1c(C)oc2ccc(O)c(CN3CCCC3)c12` here?
**A.** Its value is inactive: 14.3%.

**Q.** Which Potency does the source give for `O=C(COc1ccc(F)cc1Br)N1CCc2ccccc21` here?
**A.** The Potency was inconclusive: 3.26 µM [activator, partial curve].

**Q.** With `COc1ccccc1C(=O)Nc1ccc(S(=O)(=O)N(C)c2ccccc2)cc1` as the compound, how does the Potency read?
**A.** Its Potency is inconclusive: 29.1 µM [falling, single point].

**Q.** For `COc1ccc(C2=Nn3c(nnc3-c3ccc(OC)c(OC)c3)SC2)c(OC)c1`, which Potency is on record?
**A.** Its Potency is inconclusive: 10.3 µM [falling, partial curve, poor fit].

**Q.** For `CC(C)CNc1nc(NC(C)(C)C)nc(Oc2ccc(=O)n(-c3ccccc3)n2)n1`, which Potency is on record?
**A.** The Potency was inconclusive: 29.1 µM [falling, single point].

**Q.** Which Potency does the source give for `CCOc1cc(-c2cc(-c3ccccc3)nc(N)c2C#N)ccc1O` here?
**A.** Its Potency is inconclusive: 29.1 µM [activator, single point].

**Q.** For `CCC(=O)N(Cc1ccco1)C1CC(=O)N(c2ccccc2)C1=O` (stereo not given), which Potency is on record?
**A.** Its Potency is inconclusive: 0.259 µM [falling, full curve, poor fit].
